Paper PMC10398932
These are yes or no findings as the source states them, for the method shown. Binding seen in cells or lysates may run through a third protein. Some binding calls cover weakened binding; strength is not graded here.

Sequences of proteins named here, by UniProt entry; tags and fusion partners are left off.
UniProt Q00987: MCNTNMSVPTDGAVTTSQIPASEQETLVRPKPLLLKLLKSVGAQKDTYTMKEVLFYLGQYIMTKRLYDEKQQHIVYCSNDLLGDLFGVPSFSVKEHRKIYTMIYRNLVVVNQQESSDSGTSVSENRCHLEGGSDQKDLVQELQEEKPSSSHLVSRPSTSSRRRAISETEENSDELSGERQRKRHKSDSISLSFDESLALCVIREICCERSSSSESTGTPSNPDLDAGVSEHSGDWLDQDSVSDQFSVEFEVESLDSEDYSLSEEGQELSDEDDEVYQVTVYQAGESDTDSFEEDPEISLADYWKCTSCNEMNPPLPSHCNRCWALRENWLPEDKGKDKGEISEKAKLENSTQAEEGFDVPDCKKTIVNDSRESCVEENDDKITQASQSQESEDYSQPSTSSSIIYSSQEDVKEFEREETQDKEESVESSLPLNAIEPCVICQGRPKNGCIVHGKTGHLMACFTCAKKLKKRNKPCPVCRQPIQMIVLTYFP

Biological target: T1, Germ cell-specific gene 2 (GSG2) (human (endogenous in MCF-7 and MDA-MB-231)) (UniProt Q8TF76)
T1 sequence: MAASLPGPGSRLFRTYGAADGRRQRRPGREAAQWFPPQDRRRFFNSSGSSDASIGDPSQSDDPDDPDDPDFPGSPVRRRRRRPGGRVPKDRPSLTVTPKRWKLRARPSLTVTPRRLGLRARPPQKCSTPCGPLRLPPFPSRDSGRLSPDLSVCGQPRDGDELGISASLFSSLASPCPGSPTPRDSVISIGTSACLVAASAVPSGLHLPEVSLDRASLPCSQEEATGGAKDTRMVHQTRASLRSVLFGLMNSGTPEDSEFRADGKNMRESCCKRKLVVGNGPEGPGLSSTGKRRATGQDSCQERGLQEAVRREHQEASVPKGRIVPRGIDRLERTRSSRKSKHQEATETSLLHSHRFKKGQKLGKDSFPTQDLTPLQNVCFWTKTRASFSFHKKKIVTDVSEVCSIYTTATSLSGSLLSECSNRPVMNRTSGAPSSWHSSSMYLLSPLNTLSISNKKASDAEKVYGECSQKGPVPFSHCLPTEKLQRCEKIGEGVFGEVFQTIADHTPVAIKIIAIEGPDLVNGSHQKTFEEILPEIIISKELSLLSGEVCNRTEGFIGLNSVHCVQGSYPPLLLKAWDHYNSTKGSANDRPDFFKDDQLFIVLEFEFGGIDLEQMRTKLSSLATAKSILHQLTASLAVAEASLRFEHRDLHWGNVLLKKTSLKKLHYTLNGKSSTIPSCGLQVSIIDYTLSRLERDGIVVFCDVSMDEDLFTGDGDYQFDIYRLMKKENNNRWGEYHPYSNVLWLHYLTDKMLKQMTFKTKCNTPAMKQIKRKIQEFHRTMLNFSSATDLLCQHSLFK
Test: co-IP; anti-GSG2 or anti-MDM2 antibody on Protein A/G beads, incubated with cell lysate, washed 3 times, western blot; forward and reverse; also MCF-7 and MDA-MB-231 cells treated with or without CHR-6494

## E3 ubiquitin ligase mouse double minute 2 (MDM2) (from UniProt Q00987 1-491)
  binding: binds
